Results: article PMC10449921
Results are given in words; binding and its absence hold for the method and conditions named. Binding seen in cells or lysates may run through a third protein. Some binding calls cover weakened binding; strength is not graded here. For some assays here: Sequences can lack the tags named with a protein.

By UniProt entry, the sequences of proteins in these tests, tags left out.
UniProt P06493: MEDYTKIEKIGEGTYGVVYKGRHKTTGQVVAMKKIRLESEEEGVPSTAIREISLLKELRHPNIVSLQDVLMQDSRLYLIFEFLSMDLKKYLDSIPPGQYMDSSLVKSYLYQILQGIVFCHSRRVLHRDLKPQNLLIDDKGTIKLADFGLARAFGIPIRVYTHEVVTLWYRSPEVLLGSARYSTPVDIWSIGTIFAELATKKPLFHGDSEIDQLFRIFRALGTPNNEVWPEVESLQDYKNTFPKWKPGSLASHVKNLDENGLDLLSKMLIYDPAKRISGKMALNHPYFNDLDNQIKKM

Experiments:
[1] = biological target: CDK1 (human (endogenous in PC9 and H358)) (UniProt P06493); test: co-IP; endogenous proteins from lysates of LUAD cells (PC9, H358), with or without LINC00880 overexpression; Pierce Classic Magnetic IP/Co-IP Kit, western blotting
[2] = biological target: Flag-CDK1 (UniProt P06493); test: co-IP; PC9 cells transfected with plasmids encoding Myc-PRDX1 and Flag-CDK1, with increased LINC00880 expression; Pierce Classic Magnetic IP/Co-IP Kit, western blotting

Row | binding [1] | binding [2] | Binder
1 | binds |  | PRDX1 (protein, UniProt Q06830 1-199) MSSGNAKIGHPAPNFKATAVMPDGQFKDISLSDYKGKYVVFFFYPLDFTFVCPTEIIAFSDRAEEFKKLNCQVIGASVDSHFCHLAWVNTPKKQGGLGPMNIPLVSDPKRTIAQDYGVLKADEGISFRGLFIIDDKGILRQITVNDLPVGRSVDETLRLVQAFQFTDKHGEVCPAGWKPGSDTIKPDVQKSKEYFSKQK
2 |  | binds | Myc-PRDX1 (protein, UniProt Q06830 1-199) MSSGNAKIGHPAPNFKATAVMPDGQFKDISLSDYKGKYVVFFFYPLDFTFVCPTEIIAFSDRAEEFKKLNCQVIGASVDSHFCHLAWVNTPKKQGGLGPMNIPLVSDPKRTIAQDYGVLKADEGISFRGLFIIDDKGILRQITVNDLPVGRSVDETLRLVQAFQFTDKHGEVCPAGWKPGSDTIKPDVQKSKEYFSKQK
